Measurements published in PMC7362644.
These are yes or no findings as the source states them, for the method shown. In cells and extracts the contact can be indirect. Some binding calls cover weakened binding; strength is not graded here.

Amino acid sequences for entries named in this document (tags omitted). A change or cut given only in a name is not applied to a line headed by its entry. Chains listed by the source or under a name are the forms on record and can include a tag or linker. Residues count along the entry.
UniProt Q6ZWQ0, residues 6343-6767: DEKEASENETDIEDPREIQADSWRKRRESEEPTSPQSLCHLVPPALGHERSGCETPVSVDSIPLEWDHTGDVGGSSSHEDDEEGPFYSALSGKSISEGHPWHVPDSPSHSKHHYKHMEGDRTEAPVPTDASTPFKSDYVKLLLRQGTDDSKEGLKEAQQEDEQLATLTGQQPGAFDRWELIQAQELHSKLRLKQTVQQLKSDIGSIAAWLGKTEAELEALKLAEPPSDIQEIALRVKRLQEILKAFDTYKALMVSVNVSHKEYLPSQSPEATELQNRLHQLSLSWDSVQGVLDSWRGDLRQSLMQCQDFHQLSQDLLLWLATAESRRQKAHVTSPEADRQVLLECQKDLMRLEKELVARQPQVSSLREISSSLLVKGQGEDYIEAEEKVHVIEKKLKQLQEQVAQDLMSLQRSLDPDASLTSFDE
HA-BicD2 WT (Q921C5-2, form named): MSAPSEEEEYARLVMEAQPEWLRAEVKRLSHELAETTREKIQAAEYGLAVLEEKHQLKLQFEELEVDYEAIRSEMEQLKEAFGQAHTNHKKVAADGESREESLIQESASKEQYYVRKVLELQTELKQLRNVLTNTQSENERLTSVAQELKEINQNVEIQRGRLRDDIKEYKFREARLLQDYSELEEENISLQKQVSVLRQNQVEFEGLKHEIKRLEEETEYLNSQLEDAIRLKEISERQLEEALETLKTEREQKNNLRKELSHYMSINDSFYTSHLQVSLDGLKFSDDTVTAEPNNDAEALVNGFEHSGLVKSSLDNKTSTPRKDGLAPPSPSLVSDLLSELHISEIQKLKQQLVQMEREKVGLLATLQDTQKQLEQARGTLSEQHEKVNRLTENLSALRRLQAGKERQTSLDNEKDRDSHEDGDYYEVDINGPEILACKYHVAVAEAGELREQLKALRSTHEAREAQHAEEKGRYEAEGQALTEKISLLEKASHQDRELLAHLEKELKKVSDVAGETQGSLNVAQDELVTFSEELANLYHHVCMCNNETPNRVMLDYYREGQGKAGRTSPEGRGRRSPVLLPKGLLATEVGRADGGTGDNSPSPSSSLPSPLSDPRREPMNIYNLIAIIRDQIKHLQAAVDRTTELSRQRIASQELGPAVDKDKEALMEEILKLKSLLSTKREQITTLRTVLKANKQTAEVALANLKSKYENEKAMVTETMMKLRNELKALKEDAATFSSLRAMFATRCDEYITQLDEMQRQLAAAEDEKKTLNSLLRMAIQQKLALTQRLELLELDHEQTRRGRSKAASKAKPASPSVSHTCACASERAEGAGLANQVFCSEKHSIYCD

Molecular target: GST-tagged Nesprin-2 C-terminus (mouse) (UniProt Q6ZWQ0)
Experiment: pull-down; GST-Nesprin-2 C-terminus on glutathione resin incubated overnight at 4 °C with RIPA lysate of HEK293T cells transfected with HA-BicD2 WT or K775X; Western blot with HA antibody; only the target purified

Substance: HA-BicD2 WT (from UniProt Q921C5-2 1-851)
- binding: binds
